# Some of the results follow. Residues, ends and D or L forms follow the SMILES beside them. *: point of attachment. Cbz = O=C(OCc1ccccc1)*
# Amino acid sequences for entries named in this document (tags omitted). A change or cut given only in a name is not applied to a line headed by its entry.
# UniProt Q9BRK3: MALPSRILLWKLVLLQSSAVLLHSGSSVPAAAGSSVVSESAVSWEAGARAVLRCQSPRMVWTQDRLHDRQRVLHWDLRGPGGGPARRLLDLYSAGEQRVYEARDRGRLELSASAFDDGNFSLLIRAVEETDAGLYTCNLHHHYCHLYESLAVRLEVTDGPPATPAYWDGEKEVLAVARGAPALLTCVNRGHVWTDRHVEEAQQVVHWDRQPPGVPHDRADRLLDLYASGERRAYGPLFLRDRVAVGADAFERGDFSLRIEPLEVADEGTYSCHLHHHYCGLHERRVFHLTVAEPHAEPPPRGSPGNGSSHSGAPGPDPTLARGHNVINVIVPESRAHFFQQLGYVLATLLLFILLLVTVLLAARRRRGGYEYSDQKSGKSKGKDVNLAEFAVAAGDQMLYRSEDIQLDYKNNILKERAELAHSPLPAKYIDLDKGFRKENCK
# UniProt P35580, whole entry, looked up: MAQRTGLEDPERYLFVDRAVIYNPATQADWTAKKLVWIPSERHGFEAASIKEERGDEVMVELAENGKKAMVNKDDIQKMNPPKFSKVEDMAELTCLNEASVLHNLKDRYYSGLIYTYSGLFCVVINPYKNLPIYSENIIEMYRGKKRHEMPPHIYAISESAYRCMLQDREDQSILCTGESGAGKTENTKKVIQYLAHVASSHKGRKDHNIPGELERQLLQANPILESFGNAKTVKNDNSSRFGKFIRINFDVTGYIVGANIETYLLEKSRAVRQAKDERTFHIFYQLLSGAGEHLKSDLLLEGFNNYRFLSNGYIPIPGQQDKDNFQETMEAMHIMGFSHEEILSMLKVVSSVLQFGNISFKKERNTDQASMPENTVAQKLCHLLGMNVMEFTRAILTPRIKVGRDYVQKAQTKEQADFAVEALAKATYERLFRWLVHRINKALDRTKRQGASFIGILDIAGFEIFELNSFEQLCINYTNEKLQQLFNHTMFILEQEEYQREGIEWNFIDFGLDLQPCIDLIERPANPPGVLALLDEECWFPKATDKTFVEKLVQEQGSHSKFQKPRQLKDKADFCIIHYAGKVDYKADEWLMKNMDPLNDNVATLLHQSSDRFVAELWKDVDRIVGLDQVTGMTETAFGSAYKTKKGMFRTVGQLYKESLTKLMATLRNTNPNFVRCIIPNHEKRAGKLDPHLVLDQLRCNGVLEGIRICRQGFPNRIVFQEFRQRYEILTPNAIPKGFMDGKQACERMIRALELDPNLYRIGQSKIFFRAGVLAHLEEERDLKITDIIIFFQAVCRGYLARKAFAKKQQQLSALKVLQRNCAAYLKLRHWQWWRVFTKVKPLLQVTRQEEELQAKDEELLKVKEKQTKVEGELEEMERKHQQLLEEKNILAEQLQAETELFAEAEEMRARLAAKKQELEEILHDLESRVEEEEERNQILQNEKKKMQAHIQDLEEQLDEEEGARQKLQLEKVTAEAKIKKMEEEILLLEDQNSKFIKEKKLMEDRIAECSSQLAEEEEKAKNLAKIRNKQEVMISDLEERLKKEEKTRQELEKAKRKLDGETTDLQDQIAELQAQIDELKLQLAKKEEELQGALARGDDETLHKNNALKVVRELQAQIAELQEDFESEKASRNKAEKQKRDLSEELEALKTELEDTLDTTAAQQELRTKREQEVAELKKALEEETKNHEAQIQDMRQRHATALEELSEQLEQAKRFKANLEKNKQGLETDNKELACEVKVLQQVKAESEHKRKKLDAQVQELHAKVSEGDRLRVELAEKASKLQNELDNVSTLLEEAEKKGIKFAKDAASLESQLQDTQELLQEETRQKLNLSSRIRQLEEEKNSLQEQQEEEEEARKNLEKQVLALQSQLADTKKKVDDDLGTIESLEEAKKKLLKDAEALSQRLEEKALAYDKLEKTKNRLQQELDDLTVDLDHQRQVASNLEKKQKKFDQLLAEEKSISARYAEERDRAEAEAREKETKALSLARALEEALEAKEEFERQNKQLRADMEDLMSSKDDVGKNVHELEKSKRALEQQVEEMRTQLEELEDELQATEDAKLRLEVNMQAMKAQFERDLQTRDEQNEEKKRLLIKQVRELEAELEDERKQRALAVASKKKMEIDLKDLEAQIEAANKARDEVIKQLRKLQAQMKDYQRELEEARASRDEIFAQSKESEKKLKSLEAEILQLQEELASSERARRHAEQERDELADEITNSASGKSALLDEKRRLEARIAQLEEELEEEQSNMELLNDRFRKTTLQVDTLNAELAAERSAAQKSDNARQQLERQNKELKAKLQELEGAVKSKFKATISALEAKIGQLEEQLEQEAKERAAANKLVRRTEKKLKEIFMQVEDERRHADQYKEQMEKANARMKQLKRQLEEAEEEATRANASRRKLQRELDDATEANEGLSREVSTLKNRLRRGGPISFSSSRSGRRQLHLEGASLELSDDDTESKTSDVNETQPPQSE
# UniProt Q9H019: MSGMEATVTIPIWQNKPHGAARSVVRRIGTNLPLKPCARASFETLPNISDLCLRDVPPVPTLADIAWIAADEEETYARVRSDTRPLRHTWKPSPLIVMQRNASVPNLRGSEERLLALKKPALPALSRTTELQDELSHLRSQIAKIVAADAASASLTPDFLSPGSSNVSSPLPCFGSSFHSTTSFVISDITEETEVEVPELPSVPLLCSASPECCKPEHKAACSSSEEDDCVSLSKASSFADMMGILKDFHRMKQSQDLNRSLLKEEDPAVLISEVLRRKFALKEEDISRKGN
# UniProt Q9H6N6: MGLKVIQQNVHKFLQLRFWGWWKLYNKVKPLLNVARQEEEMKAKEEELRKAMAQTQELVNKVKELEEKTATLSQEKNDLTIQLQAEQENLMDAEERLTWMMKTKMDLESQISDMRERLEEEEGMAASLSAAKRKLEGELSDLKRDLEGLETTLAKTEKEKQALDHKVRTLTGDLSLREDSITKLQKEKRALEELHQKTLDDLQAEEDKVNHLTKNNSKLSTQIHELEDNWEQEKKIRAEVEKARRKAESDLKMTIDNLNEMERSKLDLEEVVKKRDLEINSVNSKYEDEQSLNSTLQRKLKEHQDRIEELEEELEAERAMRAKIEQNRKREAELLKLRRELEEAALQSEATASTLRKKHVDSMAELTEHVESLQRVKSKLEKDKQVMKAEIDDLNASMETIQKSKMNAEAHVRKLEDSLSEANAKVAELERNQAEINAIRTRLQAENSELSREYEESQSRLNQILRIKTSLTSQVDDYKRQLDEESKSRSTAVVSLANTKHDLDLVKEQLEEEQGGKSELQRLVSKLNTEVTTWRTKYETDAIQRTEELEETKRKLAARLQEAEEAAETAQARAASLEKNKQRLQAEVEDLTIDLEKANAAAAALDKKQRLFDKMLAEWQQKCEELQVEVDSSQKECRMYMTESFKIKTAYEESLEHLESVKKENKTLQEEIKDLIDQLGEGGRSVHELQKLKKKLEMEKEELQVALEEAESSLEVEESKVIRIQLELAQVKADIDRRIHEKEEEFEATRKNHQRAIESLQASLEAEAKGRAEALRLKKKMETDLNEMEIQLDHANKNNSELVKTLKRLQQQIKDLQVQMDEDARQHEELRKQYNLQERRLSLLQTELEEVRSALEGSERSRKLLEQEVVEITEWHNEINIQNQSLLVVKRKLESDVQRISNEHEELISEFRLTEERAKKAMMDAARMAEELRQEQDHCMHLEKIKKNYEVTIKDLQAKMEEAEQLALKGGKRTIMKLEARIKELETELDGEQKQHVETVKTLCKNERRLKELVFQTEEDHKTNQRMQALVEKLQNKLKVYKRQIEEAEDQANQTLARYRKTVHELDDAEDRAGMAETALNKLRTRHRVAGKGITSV
# UniProt P03923, whole entry, looked up: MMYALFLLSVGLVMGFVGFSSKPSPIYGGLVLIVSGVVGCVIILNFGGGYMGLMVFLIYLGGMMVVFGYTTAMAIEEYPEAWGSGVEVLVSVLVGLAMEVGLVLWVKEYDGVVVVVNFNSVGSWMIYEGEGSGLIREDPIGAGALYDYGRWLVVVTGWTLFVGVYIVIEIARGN
# UniProt P84157: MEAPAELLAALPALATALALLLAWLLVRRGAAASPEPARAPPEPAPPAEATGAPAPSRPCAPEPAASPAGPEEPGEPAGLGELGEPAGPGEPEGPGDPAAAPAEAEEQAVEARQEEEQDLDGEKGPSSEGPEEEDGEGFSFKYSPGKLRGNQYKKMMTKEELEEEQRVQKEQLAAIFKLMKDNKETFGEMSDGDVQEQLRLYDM
# UniProt P43246, whole entry, looked up: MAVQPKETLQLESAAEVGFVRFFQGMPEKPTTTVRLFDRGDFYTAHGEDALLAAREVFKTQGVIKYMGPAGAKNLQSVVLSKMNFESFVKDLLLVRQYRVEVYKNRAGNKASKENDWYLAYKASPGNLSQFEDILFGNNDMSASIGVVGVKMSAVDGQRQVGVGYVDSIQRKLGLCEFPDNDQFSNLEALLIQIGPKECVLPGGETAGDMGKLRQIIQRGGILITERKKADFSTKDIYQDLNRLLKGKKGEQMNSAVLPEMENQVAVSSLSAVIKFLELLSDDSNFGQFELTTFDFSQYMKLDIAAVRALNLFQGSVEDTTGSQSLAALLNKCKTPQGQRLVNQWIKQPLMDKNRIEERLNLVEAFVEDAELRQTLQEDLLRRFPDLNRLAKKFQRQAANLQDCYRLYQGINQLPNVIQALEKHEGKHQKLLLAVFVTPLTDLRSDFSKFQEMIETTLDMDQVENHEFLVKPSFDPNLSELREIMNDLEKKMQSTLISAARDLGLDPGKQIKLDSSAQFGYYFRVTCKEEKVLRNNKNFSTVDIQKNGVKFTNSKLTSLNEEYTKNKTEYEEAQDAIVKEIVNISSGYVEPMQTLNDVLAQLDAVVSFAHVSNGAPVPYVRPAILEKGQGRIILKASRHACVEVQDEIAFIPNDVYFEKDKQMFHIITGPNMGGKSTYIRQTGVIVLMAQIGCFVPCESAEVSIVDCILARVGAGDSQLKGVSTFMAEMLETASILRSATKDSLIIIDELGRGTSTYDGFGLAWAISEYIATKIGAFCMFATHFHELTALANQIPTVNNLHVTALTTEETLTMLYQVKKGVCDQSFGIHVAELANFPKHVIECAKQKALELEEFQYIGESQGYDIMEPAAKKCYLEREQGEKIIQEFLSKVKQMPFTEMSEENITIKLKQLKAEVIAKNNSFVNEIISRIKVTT
# UniProt Q2M296: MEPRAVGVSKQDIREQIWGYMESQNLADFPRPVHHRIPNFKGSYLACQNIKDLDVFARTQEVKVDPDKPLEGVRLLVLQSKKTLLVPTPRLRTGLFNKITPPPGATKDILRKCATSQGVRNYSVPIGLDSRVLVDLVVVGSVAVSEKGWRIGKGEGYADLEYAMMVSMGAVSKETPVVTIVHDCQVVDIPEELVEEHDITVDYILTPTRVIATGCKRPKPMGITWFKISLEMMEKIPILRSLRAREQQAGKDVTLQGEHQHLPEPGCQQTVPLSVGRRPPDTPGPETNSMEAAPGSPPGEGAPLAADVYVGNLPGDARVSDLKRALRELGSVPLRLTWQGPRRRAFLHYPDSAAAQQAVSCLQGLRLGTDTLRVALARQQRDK
# UniProt Q68DK7: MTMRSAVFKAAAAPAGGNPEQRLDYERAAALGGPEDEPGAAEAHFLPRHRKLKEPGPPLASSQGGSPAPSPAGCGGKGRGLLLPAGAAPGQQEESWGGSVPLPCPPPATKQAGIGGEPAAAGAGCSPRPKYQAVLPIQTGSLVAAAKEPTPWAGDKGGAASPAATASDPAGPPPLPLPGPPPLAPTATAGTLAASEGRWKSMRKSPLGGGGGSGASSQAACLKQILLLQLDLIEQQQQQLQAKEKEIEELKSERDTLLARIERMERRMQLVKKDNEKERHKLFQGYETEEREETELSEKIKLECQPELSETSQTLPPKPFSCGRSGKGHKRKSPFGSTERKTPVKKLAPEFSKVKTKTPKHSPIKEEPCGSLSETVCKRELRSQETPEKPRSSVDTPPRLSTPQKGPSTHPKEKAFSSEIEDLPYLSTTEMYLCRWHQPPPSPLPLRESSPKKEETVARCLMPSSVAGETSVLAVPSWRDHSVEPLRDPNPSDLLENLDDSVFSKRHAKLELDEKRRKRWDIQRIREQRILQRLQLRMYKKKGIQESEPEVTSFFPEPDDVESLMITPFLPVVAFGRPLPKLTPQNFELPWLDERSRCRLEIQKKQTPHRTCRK
# UniProt P03891, whole entry, looked up: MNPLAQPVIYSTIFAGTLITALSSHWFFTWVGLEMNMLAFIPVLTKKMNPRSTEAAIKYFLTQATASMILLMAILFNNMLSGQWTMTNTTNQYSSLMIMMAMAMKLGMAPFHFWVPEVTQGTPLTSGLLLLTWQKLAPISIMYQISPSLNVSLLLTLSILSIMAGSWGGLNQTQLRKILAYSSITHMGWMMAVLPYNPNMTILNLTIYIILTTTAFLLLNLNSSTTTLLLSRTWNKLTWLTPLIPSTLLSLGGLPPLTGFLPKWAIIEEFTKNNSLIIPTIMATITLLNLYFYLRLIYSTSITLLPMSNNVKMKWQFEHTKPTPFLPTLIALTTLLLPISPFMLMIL
# Key:
# Experiment in all cases: log2 fold change, soluble protein after heating vs DMSO (PISA); higher = thermal stabilisation; K562 cells, 10 uM, 30 min; active = over 0.2 and 3.5 SD of the protein, either way, in both replicates (recomputed)
# [1] = compound: C1COCCN1CCN2C3=CC=CC=C3N=C2NC(=O)C4=CC(=CC=C4)[N+](=O)[O-] [IRAK-1-4 Inhibitor I]
# In short: (§1)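 Values are thermal stability changes relative to control samples and are taken from duplicates. They are stated as log2 fold changes. Before quantification by TMTpro 16plex LC-MS/MS with equalised channel sums, K562 cells at 2×10^6 cells/mL were treated with 10 μM compound for 30 min, heated in aliquots for 3 min across 48°C-58°C, pooled, extracted in PBS with 0.5% NP-40 at 4°C, and centrifuged at 21,000xg for 90 min to give the soluble supernatant.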
# [2] = compound: C=CC(=O)N1CCC[C@@H](n2nc(-c3ccc(Oc4ccccc4)cc3)c3c(N)ncnc32)C1 [ibrutinib]
# In short: as §1
# [3] = compound: CC(=O)c1cnc2ccc(-c3cc(Cl)c(O)c(Cl)c3)nc2c1N[C@H]1CC[C@H](CN(C)C)CC1
# In short: as §1
# [4] = compound: CC(C)(C)Cn1c(N)nc2ccc(-c3[nH]c(C(C)(C)C)nc3-c3ccc(F)cc3)nc21 [ralimetinib]
# In short: as §1
# [5] = compound: CC(C)(O)CC(=O)NCCn1ccc2ncnc(Nc3ccc(Oc4cccc(C(F)(F)F)c4)c(Cl)c3)c21
# In short: as §1
# [6] = compound: CC(C)C1=C2N=C(C=C(N2N=C1)NCC3=CC=CC=C3)NCCCCCCN
# In short: as §1
# [7] = compound: CC(C)C[C@@H](C=O)NC(=O)[C@H](CC(C)C)NC(=O)[C@H](CC(C)C)NC(=O)OCc1ccccc1
# In short: as §1
# [8] = compound: CC(C)N(C[C@H]1O[C@@H](n2cnc3c(N)ncnc32)[C@H](O)[C@@H]1O)[C@H]1C[C@@H](CCc2nc3cc(C(C)(C)C)ccc3[nH]2)C1 [pinometostat]
# In short: as §1
# [9] = compound: CC1=C(C2=C(C=C1)C(=O)C3=CC=CC=C3N2CCCN)C
# In short: as §1
# [10] = compound: CC1=C(C=C(C=C1)NC(=O)C2=CC(=CC=C2)C(C)(C)C#N)NC3=CC4=C(C=C3)N=CN(C4=O)C
# In short: as §1
# [11] = compound: CC1=C(C=C(C=C1)NC(=O)C2=CC(=CC=C2)N(C)C)NC(=O)C3=CC=C(C=C3)O
# In short: as §1
# [12] = compound: CC1=CC=C(C=C1)SC2=C3C=C(SC3=CN=C2)C(=O)N
# In short: as §1
# [13] = compound: CC1=NC(=CC=C1)C2=C(N=C(N2)C(C)(C)C)C3=CC4=NC=CN=C4C=C3
# In short: as §1
# [14] = compound: CCCCN(Cc1ccc(C(=O)NO)cc1)C(=O)Nc1ccccc1 [Nexturastat A]
# In short: as §1
# [15] = compound: CCCS(=O)(=O)Nc1ccc(F)c(C(=O)c2c[nH]c3ncc(-c4ccc(Cl)cc4)cc23)c1F [vemurafenib]
# In short: as §1
# [16] = compound: CCCS(=O)(=O)Nc1ccc(F)c(C(=O)c2c[nH]c3ncc(Cl)cc23)c1F
# In short: as §1
# [17] = compound: CCCc1cc(C)[nH]c(=O)c1CNC(=O)c1cc(-c2ccnc(N3CCN(C)CC3)c2)cc2c1cnn2C(C)C
# In short: as §1
# [18] = compound: CCN(CC)Cc1ccc2cc(COC(=O)Nc3ccc(C(=O)NO)cc3)ccc2c1 [givinostat]
# In short: as §1
# [19] = compound: CCN(CCCOc1ccc2c(Nc3cc(CC(=O)Nc4cccc(F)c4)[nH]n3)ncnc2c1)CCOP(=O)(O)O [barasertib]
# In short: as §1
# [20] = compound: CC1=C(C(CC(=O)N1)C2=CC=C(C=C2)C(F)(F)F)C(=O)NC3=C(C=C4C(=C3)C=NN4)F
# In short: as §1
Target,log2 fold change [1],log2 fold change [2],log2 fold change [3],log2 fold change [4],log2 fold change [5],log2 fold change [6],log2 fold change [7],log2 fold change [8],log2 fold change [9],log2 fold change [10],log2 fold change [11],log2 fold change [12],log2 fold change [13],log2 fold change [14],log2 fold change [15],log2 fold change [16],log2 fold change [17],log2 fold change [18],log2 fold change [19],log2 fold change [20]
MRPS26 (UniProt Q9BYN8),inactive: -0.09,inactive: 0.008,inactive: 0.007,inactive: -0.049,inactive: -0.143,inactive: 0.03,inactive: 0.137,inactive: 0.037,inactive: -0.133,inactive: 0.021,inactive: -0.083,inactive: 0.002,inactive: -0.03,inactive: 0.075,inactive: -0.004,inactive: 0.049,inactive: -0.056,inactive: 0.098,inactive: 0.026,–
MT-CO1 (UniProt P00395),inactive: 0.083,inactive: 0.054,inactive: 0.38,inactive: -0.082,–,inactive: 0.017,inactive: -0.012,inactive: -0.066,inactive: -0.149,inactive: 0.01,inactive: 0.025,inactive: 0.015,inactive: -0.05,–,inactive: -0.058,inactive: 0.123,inactive: -0.038,inactive: -0.068,inactive: -0.075,inactive: -0.015
MXRA8 isoform 2 (UniProt Q9BRK3),inactive: 0.054,inactive: 0.128,inactive: -0.16,inactive: -0.016,inactive: -0.162,inactive: 0.083,inactive: -0.083,inactive: -0.018,inactive: 0.021,inactive: 0.086,inactive: 0.235,–,inactive: -0.106,inactive: -0.13,inactive: -0.055,–,inactive: -0.303,inactive: 0.01,inactive: 0.237,–
MYH10 isoform 3 (UniProt P35580),inactive: 0.024,inactive: -0.022,inactive: -0.011,inactive: -0.04,inactive: -0.069,inactive: -0.05,inactive: -0.001,inactive: -0.015,inactive: -0.024,inactive: 0.009,inactive: -0.033,inactive: 0.019,inactive: 0.07,inactive: -0.05,inactive: 0.028,inactive: 0.05,inactive: 0,inactive: -0.003,inactive: 0.038,–
MTFR1L (UniProt Q9H019),inactive: 0.04,inactive: 0.048,inactive: -0.052,inactive: -0.005,inactive: 0.014,inactive: -0.412,inactive: 0.047,inactive: 0.003,inactive: -0.05,inactive: 0.082,inactive: -0.006,inactive: 0.008,inactive: -0.122,inactive: -0.027,inactive: 0.048,inactive: 0.116,–,inactive: 0.031,inactive: -0.026,–
MTCH2 (UniProt E9PIE4),inactive: -0.022,inactive: 0.056,inactive: 0.109,–,inactive: -0.001,inactive: 0.01,–,inactive: -0.146,–,inactive: 0.02,–,inactive: -0.014,inactive: 0.036,inactive: -0.115,inactive: 0.045,inactive: -0.022,inactive: 0.01,inactive: 0.009,inactive: -0.032,inactive: 0.079
MTMR1 (UniProt Q13613),inactive: -0.019,inactive: -0.038,inactive: -0.174,inactive: 0.072,inactive: -0.04,–,inactive: 0.188,inactive: 0,inactive: 0.085,inactive: -0.175,inactive: 0.067,inactive: -0.066,inactive: 0.011,inactive: 0.121,inactive: -0.158,inactive: 0.03,inactive: 0.083,–,inactive: -0.004,–
MYH16 (UniProt Q9H6N6),inactive: -0.177,inactive: -0.02,inactive: 0.045,–,–,inactive: 0.026,–,inactive: -0.019,active: 0.805,inactive: 0.484,–,inactive: 0.143,active: 0.724,–,inactive: 0.155,inactive: 0.216,inactive: 0.12,inactive: -0.072,inactive: -0.069,–
MT-ND6 (UniProt P03923),inactive: -0.11,inactive: -0.009,inactive: -0.259,–,–,–,–,inactive: 0.209,inactive: -0.12,inactive: 0.232,–,–,inactive: -0.175,–,inactive: 0.107,–,inactive: -0.009,–,inactive: 0.101,inactive: -0.107
MXRA7 (UniProt P84157),inactive: 0.098,inactive: 0.048,inactive: -0.064,inactive: -0.012,inactive: 0.116,inactive: 0.075,inactive: -0.083,inactive: -0.049,inactive: -0.045,inactive: -0.181,inactive: -0.015,inactive: 0.038,inactive: 0.011,inactive: -0.002,inactive: 0.041,inactive: -0.032,inactive: -0.078,inactive: 0.011,inactive: 0.048,–
MSH2 (UniProt P43246),inactive: -0.024,inactive: -0.066,inactive: 0.018,inactive: -0.031,inactive: -0.041,inactive: -0.019,inactive: 0.023,inactive: -0.023,active: 0.357,inactive: 0.038,inactive: -0.067,inactive: 0.017,inactive: 0.066,inactive: -0.018,inactive: 0.069,inactive: 0.08,inactive: 0.019,inactive: 0.083,inactive: 0.057,–
MTHFSD isoform 3 (UniProt Q2M296),inactive: -0.017,inactive: 0.02,inactive: 0.049,inactive: 0.057,–,inactive: 0.019,inactive: 0.034,inactive: 0.108,inactive: 0,inactive: -0.29,inactive: 0.031,inactive: -0.048,inactive: -0.138,–,inactive: -0.227,inactive: 0.029,inactive: 0.105,inactive: 0.033,inactive: -0.027,–
MRPS2 (UniProt Q9Y399),inactive: -0.043,inactive: 0.109,inactive: -0.011,inactive: -0.02,inactive: -0.035,inactive: -0.03,inactive: 0.08,inactive: 0.002,inactive: -0.079,inactive: 0.075,inactive: -0.049,inactive: -0.018,inactive: 0.029,inactive: 0.049,inactive: 0.126,inactive: 0.041,inactive: -0.084,inactive: -0.044,inactive: -0.031,–
MSL1 (UniProt Q68DK7),inactive: 0.007,inactive: 0.01,inactive: -0.039,inactive: 0.184,inactive: -0.086,inactive: 0.071,inactive: -0.005,inactive: -0.1,–,inactive: -0.014,inactive: 0.037,inactive: -0.026,inactive: 0.039,inactive: 0.185,inactive: -0.02,inactive: -0.001,inactive: 0.05,inactive: 0.197,inactive: -0.002,–
MTOR (UniProt P42345),inactive: -0.029,inactive: -0.03,inactive: 0.183,inactive: 0.011,inactive: -0.084,active: -0.288,inactive: -0.002,inactive: 0.046,inactive: 0.014,inactive: -0.033,inactive: -0.05,inactive: 0.02,inactive: -0.006,inactive: 0.009,inactive: 0.024,inactive: 0.071,inactive: 0.008,inactive: 0.038,inactive: 0.059,–
MT-ND2 (UniProt P03891),inactive: -0.021,inactive: -0.042,inactive: -0.171,inactive: -0.119,–,inactive: -0.221,inactive: -0.089,inactive: -0.075,inactive: 0.113,–,inactive: 0.109,inactive: -0.047,inactive: 0.062,–,inactive: 0.065,inactive: 0.198,inactive: -0.123,inactive: 0.006,inactive: 0.079,–
MRPS12 (UniProt O15235),inactive: 0.05,inactive: -0.031,inactive: -0.033,inactive: -0.017,inactive: -0.053,inactive: -0.123,inactive: 0.092,inactive: 0.111,inactive: -0.224,inactive: -0.034,inactive: -0.094,inactive: 0.054,inactive: -0.069,inactive: 0.201,inactive: -0.146,inactive: 0.032,inactive: -0.002,inactive: 0.077,inactive: -0.054,–

# Two entries from above, set out differently.
Target	log2 fold change [1]	log2 fold change [2]	log2 fold change [3]	log2 fold change [4]	log2 fold change [5]	log2 fold change [6]	log2 fold change [7]	log2 fold change [8]	log2 fold change [9]	log2 fold change [10]	log2 fold change [11]	log2 fold change [12]	log2 fold change [13]	log2 fold change [14]	log2 fold change [15]	log2 fold change [16]	log2 fold change [17]	log2 fold change [18]	log2 fold change [19]	log2 fold change [20]
MRPS26 (UniProt Q9BYN8)	inactive: -0.09	inactive: 0.008	inactive: 0.007	inactive: -0.049	inactive: -0.143	inactive: 0.03	inactive: 0.137	inactive: 0.037	inactive: -0.133	inactive: 0.021	inactive: -0.083	inactive: 0.002	inactive: -0.03	inactive: 0.075	inactive: -0.004	inactive: 0.049	inactive: -0.056	inactive: 0.098	inactive: 0.026	–
MXRA7 (UniProt P84157)	inactive: 0.098	inactive: 0.048	inactive: -0.064	inactive: -0.012	inactive: 0.116	inactive: 0.075	inactive: -0.083	inactive: -0.049	inactive: -0.045	inactive: -0.181	inactive: -0.015	inactive: 0.038	inactive: 0.011	inactive: -0.002	inactive: 0.041	inactive: -0.032	inactive: -0.078	inactive: 0.011	inactive: 0.048	–
